Consider 4 molecules from article PMC3325482.

These are yes or no findings as the source states them, for the method shown. Some binding calls cover weakened binding; strength is not graded here.

Assay [1] deals with T1, zebrafish JamB1 ectodomain (zebrafish).
T1 sequence (chain, biotin on the lysine of the Bio peptide (bait form, enzymatic by BirA)): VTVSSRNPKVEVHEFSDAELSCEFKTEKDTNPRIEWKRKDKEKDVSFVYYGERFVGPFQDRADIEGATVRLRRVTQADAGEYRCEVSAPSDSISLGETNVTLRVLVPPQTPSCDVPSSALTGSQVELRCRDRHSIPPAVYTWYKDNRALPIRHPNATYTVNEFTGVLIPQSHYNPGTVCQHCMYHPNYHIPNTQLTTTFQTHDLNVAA
The assay can be described thus: peptide or protein array; microarray AVEXIS: all six zebrafish Jam baits (purified, biotinylated) immobilised as a dilution series on streptavidin-coated slides, probed with the six corresponding pentameric preys, 1 h at 22 °C, anti-Flag HRP and TSA Alexa 555 detection; only the target purified.

Assay [2] addresses T2, rat Cd200 ectodomain (rat) (UniProt P04218).
T2 sequence (chain, biotin on the lysine of the Bio peptide (bait form, enzymatic by BirA)): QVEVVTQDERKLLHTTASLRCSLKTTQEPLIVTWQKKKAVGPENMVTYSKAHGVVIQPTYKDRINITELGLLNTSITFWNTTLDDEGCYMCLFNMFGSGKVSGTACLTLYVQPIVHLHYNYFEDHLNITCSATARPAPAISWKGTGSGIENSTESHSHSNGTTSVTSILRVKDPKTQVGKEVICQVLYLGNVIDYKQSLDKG
The assay can be described thus: peptide or protein array; microarray AVEXIS: serial dilutions of purified biotinylated baits on streptavidin-coated slides, probed with 196 U of unpurified pentameric prey, 1 h at 22 °C, washes in PBS/Tween, anti-Flag HRP and TSA Alexa 555 detection; only the target purified.

Assay [3] concerns the target T3, rat Cd200R ectodomain (rat) (UniProt Q9ES58).
T3 sequence (chain, biotin on the lysine of the Bio peptide (bait form, enzymatic by BirA)): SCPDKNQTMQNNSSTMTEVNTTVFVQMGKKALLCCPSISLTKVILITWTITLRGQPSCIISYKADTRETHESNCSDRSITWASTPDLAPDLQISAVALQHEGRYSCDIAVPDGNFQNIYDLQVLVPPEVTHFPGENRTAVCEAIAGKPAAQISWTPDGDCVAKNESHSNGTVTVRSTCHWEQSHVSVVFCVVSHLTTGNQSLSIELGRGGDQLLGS
The assay is described as above.

The target in assay [4] is T4, zebrafish JamC1 ectodomain (zebrafish) (UniProt A3KPA0).
T4 sequence (chain, biotin on the lysine of the Bio peptide (bait form, enzymatic by BirA)): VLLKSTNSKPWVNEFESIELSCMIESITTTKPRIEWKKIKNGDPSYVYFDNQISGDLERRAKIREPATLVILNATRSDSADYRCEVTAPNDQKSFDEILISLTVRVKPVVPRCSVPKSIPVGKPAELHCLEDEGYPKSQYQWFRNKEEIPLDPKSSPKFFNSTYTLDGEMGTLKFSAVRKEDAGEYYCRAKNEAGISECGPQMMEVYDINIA
As to the kind of experiment: peptide or protein array; microarray AVEXIS: all six zebrafish Jam baits (purified, biotinylated) immobilised as a dilution series on streptavidin-coated slides, probed with the six corresponding pentameric preys, 1 h at 22 °C, anti-Flag HRP and TSA Alexa 555 detection; only the target purified.

B1: zebrafish JamC1 ectodomain (domain or fragment, UniProt A3KPA0 24-235)
chain: T4 sequence (chain, biotin on the lysine of the Bio peptide (bait form, enzymatic by BirA))
modifications: biotin on the lysine of the Bio peptide (bait form, enzymatic by BirA)
Take B1: the binding entry in assay [1] is given as “binds”.

B2: rat Cd200R ectodomain (domain or fragment, UniProt Q9ES58 24-239)
chain: T3 sequence (chain, biotin on the lysine of the Bio peptide (bait form, enzymatic by BirA))
modifications: biotin on the lysine of the Bio peptide (bait form, enzymatic by BirA)
With B2, in assay [2], the binding entry is reported as “binds”.

B3: rat Cd200 ectodomain (domain or fragment, UniProt P04218 31-232)
chain: T2 sequence (chain, biotin on the lysine of the Bio peptide (bait form, enzymatic by BirA))
modifications: biotin on the lysine of the Bio peptide (bait form, enzymatic by BirA)
For the molecule B3, the binding result in assay [3] is listed as “binds”.

B4: zebrafish JamB1 ectodomain (domain or fragment, UniProt A0A0R4IGV4 19-226)
chain: T1 sequence (chain, biotin on the lysine of the Bio peptide (bait form, enzymatic by BirA))
modifications: biotin on the lysine of the Bio peptide (bait form, enzymatic by BirA)
For the molecule B4, in assay [4], the binding result is reported as “binds”.
